Test results from PMC13674618.
Negatives hold for the conditions tested.

Target: Human serum albumin (HSA) (Homo sapiens) (UniProt P02768)
Experiment: FO-SPR
Settings: no discernible signal variation with varying HSA in PBS; 5'-AminoC6; PBS (immobilization and rinse PBS pH 7.4); FO-SPR 10 min per concentration step; aptamer folded 95 C 5 min, ice 15 min, RT 5 min; assay temperature not stated; single-stranded DNA

## CTTCCAACGCTCGTATTGTCAGTCTTTAGT [IL-6 specific aptamer (Apt)]
  binding result: no binding
